Results are given in words; binding and its absence hold for the method and conditions named. Binding calls can cover weak binding; strength is not graded here. Tags and fused reporters may be left off the sequences shown.

These results are taken from PMC11231337.

This experiment concerns the target GST-PD-L1 intracellular domain (ICD) (not stated (human or mouse cDNA cloned)). Nature of the experiment: pull-down; GST pull-down with GST-tagged PD-L1 FL, ECD or ICD purified from E. coli and His-tagged PPM1B; 1 μg of each indicated protein; both purified.

B1: His-tagged PPM1B (enzyme, UniProt O75688 1-479)
chain: MGAFLDKPKTEKHNAHGAGNGLRYGLSSMQGWRVEMEDAHTAVVGIPHGLEDWSFFAVYDGHAGSRVANYCSTHLLEHITTNEDFRAAGKSGSALELSVENVKNGIRTGFLKIDEYMRNFSDLRNGMDRSGSTAVGVMISPKHIYFINCGDSRAVLYRNGQVCFSTQDHKPCNPREKERIQNAGGSVMIQRVNGSLAVSRALGDYDYKCVDGKGPTEQLVSPEPEVYEILRAEEDEFIILACDGIWDVMSNEELCEYVKSRLEVSDDLENVCNWVVDTCLHKGSRDNMSIVLVCFSNAPKVSDEAVKKDSELDKHLESRVEEIMEKSGEEGMPDLAHVMRILSAENIPNLPPGGGLAGKRNVIEAVYSRLNPHRESDGASDEAEESGSQGKLVEALRQMRINHRGNYRQLLEEMLTSYRLAKVEGEESPAEPAATATSSNSDAGNPVTMQESHTESESGLAELDSSNEDAGTKMSGEKI
Take B1: the binding entry is listed as “binds”.
